According to patent US20110190365A1, “Insecticidal 4-phenyl-1H-pyrazoles” (Bayer Crop Science AG, priority 2008, published 2011):
Some of these results come from one statement about several compounds together. At least one structure is not confirmed: it was looked up by name or label, or the drawing left a doubt.

Test system: green peach aphid (Myzus persicae)
Experiment: Myzus persicae test (MYZUPE spray treatment)
Type: in vivo
Settings: application rate 500 g/ha, Chinese cabbage leaf discs sprayed, after 6 days
Procedure: Myzus persicae Test (MYZUPE Spray Treatment)
Solvent: 78.0 parts by weight of acetone • • 1.5 parts by weight of dimethylformamide Emulsifier: 0.5 part by weight of alkylaryl polyglycol ether
To produce a suitable preparation of active compound, 1 part by weight of active compound is mixed with the stated amounts of solvent and emulsifier, and the concentrate is diluted with emulsifier-containing water to the desired concentration.
Discs of Chinese cabbage (Brassica pekinensis) infected by all stages of the green peach aphid (Myzus persicae) are sprayed with an active compound preparation of the desired concentration.
After 6 days, the effect in % is determined. 100% means that all of the aphids have been killed; 0% means that none of the aphids have been killed.

Row | SMILES | effect in % (aphids killed)
1 | Nc1c(-c2ccc(Cl)cc2)c(C(F)(F)F)nn1-c1ccc(C(=O)O)cc1 [I-A-Q4-088] | > 80%
2 | Nc1c(-c2ccc(Cl)c(Cl)c2)c(C(F)(F)F)nn1-c1ccc(C(=O)O)cc1 [I-A-Q4-089] | > 80%
